Reference: PMC9338278

The chains behind the UniProt entries cited, without tags or fusion partners.
UniProt P22700: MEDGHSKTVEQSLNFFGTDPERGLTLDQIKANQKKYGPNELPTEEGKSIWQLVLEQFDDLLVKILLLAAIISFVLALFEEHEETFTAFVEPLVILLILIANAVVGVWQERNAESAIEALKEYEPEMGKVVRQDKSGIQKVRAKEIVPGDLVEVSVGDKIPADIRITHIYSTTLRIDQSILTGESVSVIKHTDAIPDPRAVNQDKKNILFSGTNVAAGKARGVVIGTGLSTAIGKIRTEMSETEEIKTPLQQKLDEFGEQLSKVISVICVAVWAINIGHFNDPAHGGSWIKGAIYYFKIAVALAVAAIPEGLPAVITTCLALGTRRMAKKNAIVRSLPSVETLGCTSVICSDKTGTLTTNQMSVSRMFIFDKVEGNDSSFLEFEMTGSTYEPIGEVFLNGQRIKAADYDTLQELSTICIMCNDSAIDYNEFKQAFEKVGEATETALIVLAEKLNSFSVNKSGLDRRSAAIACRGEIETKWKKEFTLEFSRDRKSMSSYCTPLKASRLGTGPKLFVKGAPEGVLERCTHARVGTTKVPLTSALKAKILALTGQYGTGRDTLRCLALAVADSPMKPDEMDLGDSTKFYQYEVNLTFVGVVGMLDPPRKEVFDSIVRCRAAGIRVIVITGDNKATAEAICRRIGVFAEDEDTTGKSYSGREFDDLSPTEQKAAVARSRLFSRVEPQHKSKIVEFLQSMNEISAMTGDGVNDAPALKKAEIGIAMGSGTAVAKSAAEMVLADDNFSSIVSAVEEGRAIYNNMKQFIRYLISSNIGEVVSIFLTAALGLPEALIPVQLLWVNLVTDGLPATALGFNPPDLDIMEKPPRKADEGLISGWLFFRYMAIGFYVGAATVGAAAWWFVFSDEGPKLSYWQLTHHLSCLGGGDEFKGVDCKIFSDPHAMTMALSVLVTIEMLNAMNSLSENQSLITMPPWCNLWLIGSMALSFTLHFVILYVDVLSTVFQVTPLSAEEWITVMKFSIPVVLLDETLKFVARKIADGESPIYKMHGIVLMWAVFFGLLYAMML

Molecular target: T1, Nep4A::roGFP (Drosophila Neprilysin 4, isoform A, fused to roGFP2) (Drosophila melanogaster) (UniProt Q8T062)
T1 sequence: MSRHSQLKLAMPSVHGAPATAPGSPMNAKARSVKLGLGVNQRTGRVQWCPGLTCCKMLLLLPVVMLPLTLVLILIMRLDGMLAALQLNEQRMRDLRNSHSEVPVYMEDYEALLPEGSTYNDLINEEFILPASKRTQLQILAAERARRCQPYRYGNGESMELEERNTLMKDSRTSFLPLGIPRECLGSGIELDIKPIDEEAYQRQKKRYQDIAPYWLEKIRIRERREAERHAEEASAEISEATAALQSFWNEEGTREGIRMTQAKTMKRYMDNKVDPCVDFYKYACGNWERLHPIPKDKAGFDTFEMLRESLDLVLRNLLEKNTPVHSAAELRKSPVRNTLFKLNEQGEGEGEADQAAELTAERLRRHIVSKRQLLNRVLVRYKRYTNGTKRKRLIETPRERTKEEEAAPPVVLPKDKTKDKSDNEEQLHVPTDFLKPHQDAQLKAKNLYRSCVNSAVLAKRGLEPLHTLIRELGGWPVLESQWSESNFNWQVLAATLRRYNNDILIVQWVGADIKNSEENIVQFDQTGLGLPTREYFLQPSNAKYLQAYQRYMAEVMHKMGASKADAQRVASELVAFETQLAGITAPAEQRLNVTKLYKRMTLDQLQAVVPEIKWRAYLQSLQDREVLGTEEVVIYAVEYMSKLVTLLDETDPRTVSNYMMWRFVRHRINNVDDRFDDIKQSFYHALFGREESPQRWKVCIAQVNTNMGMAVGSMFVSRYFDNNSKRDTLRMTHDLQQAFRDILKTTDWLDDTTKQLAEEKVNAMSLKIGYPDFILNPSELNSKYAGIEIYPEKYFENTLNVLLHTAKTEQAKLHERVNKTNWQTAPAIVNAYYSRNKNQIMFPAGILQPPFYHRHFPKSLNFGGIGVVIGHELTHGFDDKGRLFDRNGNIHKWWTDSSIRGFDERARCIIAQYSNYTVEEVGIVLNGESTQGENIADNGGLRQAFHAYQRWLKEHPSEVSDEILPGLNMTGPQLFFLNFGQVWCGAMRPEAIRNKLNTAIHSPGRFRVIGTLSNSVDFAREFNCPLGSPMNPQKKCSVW
Assay: affinity purification with mass spectrometry; GFP-tagged bait expressed in third instar larval muscle (mef2-Gal4); larval homogenate in 150 mM NaCl, 50 mM Tris, 1 mM MgCl, 0.2% DDM; anti-GFP MicroBeads, 30 min at 4 °C; on-column trypsin digest, label-free quantification, three biological replicates

binding: binds
Substance: sarcoplasmic and endoplasmic reticulum Ca2+ ATPase (SERCA), Drosophila (from UniProt P22700 1-1020) (enzyme)

These are yes or no findings as the source states them, for the method shown. In cells and extracts the contact can be indirect. A yes stands for co-enrichment or nearness to the bait. Other partners may have been found. Where a sequence is shown, tags or fusion partners need not be part of it.
